# PubChem BioAssay AID588590 (National Center for Advancing Translational Sciences (NCATS), 2011)
# Chains of the proteins cited; added tags and fusions are not shown. Lines headed by an entry give the natural chain unless they say otherwise; changes in a name come on top.
# UniProt Q9UNA4: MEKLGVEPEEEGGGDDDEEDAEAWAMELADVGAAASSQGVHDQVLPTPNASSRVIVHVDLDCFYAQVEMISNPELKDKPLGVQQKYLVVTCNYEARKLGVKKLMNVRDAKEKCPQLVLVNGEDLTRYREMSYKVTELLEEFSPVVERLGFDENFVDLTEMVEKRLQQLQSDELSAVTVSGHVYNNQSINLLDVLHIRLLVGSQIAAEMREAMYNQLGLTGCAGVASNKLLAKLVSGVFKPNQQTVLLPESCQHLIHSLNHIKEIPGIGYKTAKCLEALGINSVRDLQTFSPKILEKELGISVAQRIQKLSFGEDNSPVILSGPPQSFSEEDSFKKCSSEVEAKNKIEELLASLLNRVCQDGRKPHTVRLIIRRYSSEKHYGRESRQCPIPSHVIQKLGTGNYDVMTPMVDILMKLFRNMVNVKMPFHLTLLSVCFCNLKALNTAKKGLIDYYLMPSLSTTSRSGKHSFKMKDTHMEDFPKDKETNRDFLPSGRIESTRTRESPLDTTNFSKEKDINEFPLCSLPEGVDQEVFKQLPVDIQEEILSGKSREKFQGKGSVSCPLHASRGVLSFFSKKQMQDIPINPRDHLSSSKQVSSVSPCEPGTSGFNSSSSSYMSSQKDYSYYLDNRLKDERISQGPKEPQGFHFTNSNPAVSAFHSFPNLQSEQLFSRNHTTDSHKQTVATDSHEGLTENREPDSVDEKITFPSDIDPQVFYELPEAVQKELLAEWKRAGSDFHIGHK
# Hit rate of the full screen: of about 390,000 compounds, about 4,000 (1%) were called active. Inconclusive results, whose numbers are uncertain, are shown with a selection of clear calls. Calls follow the shape of the dose curve; as a rule, active = well fitted inhibition curve with a large enough effect; inconclusive = small, poorly fitted or top-dose-only effect, or another doubt; inactive = no such curve, though single readings can be large or run the other way. Potencies beside an inconclusive call are fits to weak or partial responses and may not hold up.
# Biological target: DNA polymerase iota (Homo sapiens) (UniProt Q9UNA4)
# Assay: qHTS for Inhibitors of Polymerase Iota
# Details: Pol iota fluorescent replication assay, 10 min; series mostly up to 115 µM; activity, negative = inhibition: at the top concentration
# In short: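 Fluorescent replication assay read twice, at 0 min and 10 min after adding 50 nM (final) substrate. Enzyme (10 nM) and compounds were first incubated 15 min at room temperature; enzyme-free buffer wells were negative controls.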
# Potency is read from the fitted curve at half-maximal effect.
SMILES,Potency,"activity, negative = inhibition"
CCN(CC)c1ccc(C=Nc2ccc(C)cc2)c(O)c1,"inconclusive: 35.5 µM [inhibitor, partial curve, poor fit]",
Cc1ccc(C)c(Cn2c3ccccc3c3cnn(CC(=O)NCc4ccccn4)c(=O)c32)c1,"inconclusive: 56.2 µM [inhibitor, partial curve, poor fit]",
Cc1ncsc1CCOC(=O)c1ccc(N2CCOCC2)c([N+](=O)[O-])c1,,inactive: 13.4%
CCOC(=O)c1c(C)nc(C)c(C(=O)OCC)c1-c1ccc(Br)cc1,,inactive: 151%
Cc1cccc(-c2cc3nc(C)cc(NCCCn4ccnc4)n3n2)c1,"inconclusive: 5.62 µM [inhibitor, single point]",
CN(CC(=O)Nc1ccccc1Cl)C(=O)CCc1nc2ccccc2c(=O)[nH]1,"inconclusive: 35.5 µM [inhibitor, partial curve, poor fit]",
CCOC(=O)c1c(C)c(C(=O)NCc2ccco2)c(C)n1Cc1ccccc1,"inconclusive: 44.7 µM [inhibitor, partial curve]",
Cn1c(=O)[nH]c(=O)c2c1nc1n2CCN1Cc1ccccc1,,inactive: 34%
CSCCC(NC(=O)c1ccc(Cl)cc1Cl)C(=O)N(C)Cc1nc2ccccc2c(=O)[nH]1 (stereo not drawn),,inactive: -7.82%
CCn1c(C)c(CS(=O)(=O)c2ccccc2)[nH]c1=O,"inconclusive: 25.1 µM [inhibitor, single point]",
O=C(O)COc1ccccc1/C=N/NC(=O)/C(=C\c1ccc2c(c1)OCO2)NC(=O)c1ccccc1,"inconclusive: 22.4 µM [inhibitor, single point]",
O=C(C[n+]1ccccc1Br)c1ccc(-c2ccccc2)cc1,"inconclusive: 63.1 µM [inhibitor, partial curve, poor fit]",
COc1ccc(N2C(=O)C(F)(F)C2c2cccc(F)c2)cc1 (stereo not drawn),"inconclusive: 39.8 µM [inhibitor, partial curve, poor fit]",
COc1ccc(-c2nc(CCNC(=O)c3c(F)cccc3Cl)cs2)cc1,,inactive: 7.76%
CCCN1CNc2c(c(=O)[nH]c(=S)n2CCc2ccc(C)cc2C)C1,"inconclusive: 79.4 µM [inhibitor, single point]",
COc1cc2c(cc1OC)C(COc1ccc(F)cc1)NCC2 (stereo not drawn),"inconclusive: 28.2 µM [inhibitor, partial curve, poor fit]",
COc1ccc(OC)c(/C=N/NC(=O)c2ccc(N(C)S(=O)(=O)c3ccccc3)cc2)c1,"inconclusive: 89.1 µM [inhibitor, single point]",
O=C(Nc1ccc(F)c(F)c1)c1cc(S(=O)(=O)NCc2ccc3c(c2)OCO3)ccc1F,,inactive: -14.8%
COc1ccccc1-c1nc2ccccc2c(=O)n1O,,inactive: 118%
CCOC(=O)C1CN(S(=O)(=O)c2ccc(OC)cc2)c2cc(CC(=O)OC)ccc2O1 (stereo not drawn),"inconclusive: 112 µM [inhibitor, single point]",
C(=C\c1nccc2c1[nH]c1ccccc12)/c1ccccc1,"inconclusive: 79.4 µM [inhibitor, partial curve, poor fit]",
Cc1ccc(NC(=O)CSc2nc3nc(C)cc(C)c3c(=O)[nH]2)cc1,,inactive: 1.24%

SMILES,Potency,"activity, negative = inhibition"
COc1ccc(NC(=O)CSc2nc3ccccc3c(=O)n2CCCN2CCC(C)CC2)c(OC)c1,"inconclusive: 89.1 µM [inhibitor, single point]",
Cc1nn(CC(=O)NC2CCC(C)CC2)c(C)c1[N+](=O)[O-] (stereo not drawn),,inactive: -4.89%
CCC(C)Sc1nc2c(c(=O)[nH]1)C(c1cccs1)C1=C(CCCC1=O)N2 (stereo not drawn),"inconclusive: 56.2 µM [inhibitor, partial curve, poor fit]",
CCOC(=O)NC(=O)CSc1nc2ccc(OCC)cc2[nH]1,"inconclusive: 28.2 µM [inhibitor, single point]",
Cc1cc(NS(=O)(=O)c2ccc(NC(=O)COc3ccc(Br)cc3)cc2)nc(C)n1,,inactive: -0.592%
COc1ccccc1C(=O)NCC(=O)Nc1ccc2c(c1)OCO2,"inconclusive: 8.91 µM [inhibitor, partial curve, poor fit]",
Cc1ccc(-c2csc(/C(C#N)=C(\O)CCl)n2)cc1,"inconclusive: 15.8 µM [inhibitor, full curve, poor fit]",
Cc1ccc2c(c1)cc1c(=O)n(CC(=O)NC(C)CCc3ccccc3)nc(C)n12 (stereo not drawn),,inactive: 19.7%
O=C(O)CC1CCC(=C(Cl)Cl)C1 (stereo not drawn),"inconclusive: 50.1 µM [inhibitor, partial curve]",
CCN(CCC#N)c1ccc(/C=C/c2ccnc3ccccc23)cc1,,inactive: 1.52%
COC(=O)C1=CNC=C(C(=O)OC)C1c1cccc2ccccc12,"inconclusive: 79.4 µM [inhibitor, partial curve]",
O=C(Cc1ccc([N+](=O)[O-])cc1)Nc1cccnc1,"inconclusive: 79.4 µM [inhibitor, partial curve, poor fit]",
COc1cc2nc(N3CCOCC3)nc(NC3CCN(Cc4ccccc4)CC3)c2cc1OC,,inactive: 19.7%
O=C(Oc1ccc2c(c1)O/C(=C\c1ccncc1)C2=O)c1cccs1,"inconclusive: 20 µM [inhibitor, partial curve, poor fit]",
CS(=O)(=O)N(CC(=O)Nc1ccc(CC#N)cc1)c1ccc(C23CC4CC(CC(C4)C2)C3)cc1,"inconclusive: 44.7 µM [inhibitor, partial curve]",
Cc1ccc(NC(=O)CCSc2nnc(-c3ccco3)o2)cc1,,inactive: -4.97%
O=S(=O)(Nc1c(O)ccc2ccccc12)c1ccccc1,"inconclusive: 22.4 µM [inhibitor, partial curve]",
O=S(=O)(Cc1cccc(F)c1)c1c[nH]c2ccccc12,"inconclusive: 28.2 µM [inhibitor, partial curve, poor fit]",
O=C(Nc1ccc(F)cc1F)c1ccc2c(c1)CCN2S(=O)(=O)c1ccc(Cl)cc1,"inconclusive: 89.1 µM [inhibitor, single point]",
CN(C(=O)c1cccc(NC(=O)Cc2ccc(NC(=O)C3CCCN(S(=O)(=O)c4cccc([N+](=O)[O-])c4)C3)cc2)c1)C1CCCC1 (stereo not drawn),,inactive: 45.7%
COc1ccc(N2CC(C(=O)Nc3c4c(nn3-c3ccc(OC)cc3)CS(=O)(=O)C4)CC2=O)cc1 (stereo not drawn),"inconclusive: 89.1 µM [inhibitor, single point]",

# Two of the compounds above, as tab-separated lines.
SMILES	Potency	activity, negative = inhibition
COC(=O)C1=CNC=C(C(=O)OC)C1c1cccc2ccccc12	inconclusive: 79.4 µM [inhibitor, partial curve]	
O=S(=O)(Nc1c(O)ccc2ccccc12)c1ccccc1	inconclusive: 22.4 µM [inhibitor, partial curve]	
